Values quoted from earlier work, collected in US20070281960A1, “Anti-Histaminic Composition” (priority 2004, published 2007).

Settings: more potent than loratadine; cited from earlier work

Q: Which “potency in-vivo relative to loratadine” value does the source give for `Clc1ccc2c(c1)CCc1cccnc1C2=C1CCNCC1` [Desloratadine, 8-chloro-6,11-dihydro-11-(4-piperidylidene)-5-H-benzo [5,6] cyclohepta [1,2-b] pyridine] here?
A: Its value is 10 fold.
